According to ChEMBL document CHEMBL3421607, “Design, synthesis and antibacterial activity of cinnamaldehyde derivatives as inhibitors of the bacterial cell division protein FtsZ” (Eur J Med Chem, 2015):
Values after ≈ are worked out from the molar mass of the structure shown.

Experiments:
Format in all cases: functional
Staphylococcus aureus [1] = assay: microbe, parasite or virus in culture; conditions: ATCC 25923, 24 h
Escherichia coli [2] = assay: microbe, parasite or virus in culture; conditions: ATCC 25922, 24 h
Streptococcus pyogenes = assay: Antibacterial activity against penicillin-susceptible Streptococcus pyogenes clinical isolates after 24 hrs by broth microdilution method
Bacillus subtilis [3] = assay: microbe, parasite or virus in culture; conditions: ATCC 9372, 5 h
Staphylococcus aureus [4] = assay: microbe, parasite or virus in culture; conditions: ATCC 25923, 5 h
Pseudomonas aeruginosa [5] = assay: microbe, parasite or virus in culture; conditions: ATCC 27853, 24 h
Bacillus subtilis [6] = assay: microbe, parasite or virus in culture; conditions: ATCC 9372, 24 h
Staphylococcus aureus [7] = assay: microbe, parasite or virus in culture; conditions: ATCC 29213, 24 h
[8] = system: Staphylococcus epidermidis; assay: Antibacterial activity against penicillin-resistant Staphylococcus epidermidis clinical isolates after 24 hrs by broth microdilution method
Escherichia coli [9] = assay: microbe, parasite or virus in culture; conditions: ATCC 25922, 5 h
Staphylococcus aureus [10] = assay: Antibacterial activity against penicillin-resistant Staphylococcus aureus clinical isolates after 24 hrs by broth microdilution method
Pseudomonas aeruginosa [11] = assay: microbe, parasite or virus in culture; conditions: ATCC 27853, 5 h

`COc1ccc(NC(=O)/C=C/c2ccccc2)cc1` [N-(4-METHOXYPHENYL)CINNAMAMIDE] was tested, and the MIC (Staphylococcus aureus [1]) was > 128 µg/mL, the MIC (Escherichia coli [2]) was 128 µg/mL (≈ 505 µM) and the MIC (Streptococcus pyogenes) was > 128 µg/mL. The MIC (Bacillus subtilis [3]) was > 128 µg/mL, the MIC (Staphylococcus aureus [4]) was > 128 µg/mL and the MIC (Pseudomonas aeruginosa [5]) was 128 µg/mL (≈ 505 µM). For the same compound, the MIC (Bacillus subtilis [6]) was 128 µg/mL (≈ 505 µM), the MIC (Staphylococcus aureus [7]) was > 128 µg/mL and the MIC [8] was > 128 µg/mL. For the same compound, the MIC (Escherichia coli [9]) was 128 µg/mL (≈ 505 µM), the MIC (Staphylococcus aureus [10]) was > 128 µg/mL and the MIC (Pseudomonas aeruginosa [11]) was 128 µg/mL (≈ 505 µM).
